These results are taken from patent publication US20080008719A1 (Alexion, published 2008).

Amino acid sequences for entries named in this document (tags omitted). A change or cut given only in a name is not applied to a line headed by its entry.
UniProt P23229: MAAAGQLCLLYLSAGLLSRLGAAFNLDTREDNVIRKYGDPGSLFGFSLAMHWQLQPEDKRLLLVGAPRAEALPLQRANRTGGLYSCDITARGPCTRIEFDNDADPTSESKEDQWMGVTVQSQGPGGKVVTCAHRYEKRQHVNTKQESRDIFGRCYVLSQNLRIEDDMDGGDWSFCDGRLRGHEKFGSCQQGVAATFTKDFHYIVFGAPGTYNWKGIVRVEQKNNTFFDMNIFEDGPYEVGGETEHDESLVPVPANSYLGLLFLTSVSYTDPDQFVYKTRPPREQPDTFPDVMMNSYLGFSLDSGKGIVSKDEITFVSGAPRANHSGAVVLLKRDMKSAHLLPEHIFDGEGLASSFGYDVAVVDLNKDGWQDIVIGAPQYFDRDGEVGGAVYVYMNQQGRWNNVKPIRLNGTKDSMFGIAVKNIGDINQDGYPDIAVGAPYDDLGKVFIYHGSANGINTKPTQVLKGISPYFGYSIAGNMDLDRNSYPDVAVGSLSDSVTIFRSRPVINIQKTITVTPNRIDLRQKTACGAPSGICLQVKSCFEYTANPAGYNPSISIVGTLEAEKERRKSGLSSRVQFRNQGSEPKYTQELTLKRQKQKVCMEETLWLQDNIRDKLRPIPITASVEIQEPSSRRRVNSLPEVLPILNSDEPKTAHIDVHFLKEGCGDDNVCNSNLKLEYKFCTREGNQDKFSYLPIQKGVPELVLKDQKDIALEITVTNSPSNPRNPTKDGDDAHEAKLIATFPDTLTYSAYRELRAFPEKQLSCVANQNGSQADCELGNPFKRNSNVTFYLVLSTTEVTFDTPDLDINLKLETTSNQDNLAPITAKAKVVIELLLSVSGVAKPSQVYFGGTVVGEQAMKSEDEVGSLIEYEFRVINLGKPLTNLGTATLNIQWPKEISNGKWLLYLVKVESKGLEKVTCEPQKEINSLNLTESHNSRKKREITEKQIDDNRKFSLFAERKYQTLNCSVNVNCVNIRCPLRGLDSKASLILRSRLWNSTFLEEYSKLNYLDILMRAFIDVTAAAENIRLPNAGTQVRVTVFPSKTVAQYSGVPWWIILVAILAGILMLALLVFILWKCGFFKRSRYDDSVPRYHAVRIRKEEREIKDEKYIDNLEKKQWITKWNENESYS

The target in the test is Integrin alpha6/beta4 (human) (UniProt P23229). Kind of test: immunoprecipitation from PC-3 membrane lysate with biotinylated Fab, mass spectrometry.

Results are given in words; binding and its absence hold for the method and conditions named. In cells and extracts the contact can be indirect. These calls come from enrichment with a bait or labelling near it, and not all partners need be listed.

B1: Fab 65A12 (Fab, V domains shown)
VH: EVQLQQSGPELVKPGASVKISCKTSGYTFTEYTMHWVKQSHGKSLEWIGGINPNNGGTNYNQKFKGKATLTVDKSSSTAYMELRSLTSEDSAVYYCARWTGDFDVWGAGTTVTVSS
VL: DIVMTQSQKFMSTSVGDRVSVTCKASQNVGTNVAWYQQKPGQSPDALIYSASYRYSGVPDRFTGSGSGTDFTLTITNVQSEDLADYFCQQYNSYPLTFGSGTKLDLKR
As for B1, the binding entry is listed as “binds”.
